Test results: patent US11413334B2, “Lysin polypeptides active against Gram-negative bacteria” (CONTRAFECT CORPORATION, priority 2015, dated 2022)
Some of these results come from one statement about several compounds together.

Tested on: PAO1 cells
Assay: Killing assay of GN4-derived peptides in Tris-HCl buffer
Conditions: peptide 10 mcg/ml, 1 hour, 37° C., 20 mM Tris-HCl pH 7.2, 10^5 PAO1 cells, FIG. 6

FGN4-1: 42 amino acid C-terminal alpha-helical domain fragment of GN4 (NKGDYQGAADQFPRWVNAGGKRLDGLVKRRAAERALFLEPLS; Pseudomonas phage PAJU2)
decrease in cell viability: ≥ 4 log
